# Laboratory results from the supplement of paper PMC10727501.
# This is one part of the list. Single values are uncertain here, since repeats match poorly.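 Free-swimming zebrafish larvae were scored for O-bend response probability to dark flashes (naive: first five; training: remaining flashes of four 60-flash blocks; test: later 60-flash block) and for turning toward alternating leftward/rightward LED motion (OMR). Six treated larvae were compared with sixty 0.1% DMSO controls; |SSMD|≥2 defined a hit.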
# Test system: Danio rerio larvae (5 dpf, TLF)
# Test: Prob-Naive (SSMD vs DMSO vehicle); higher = higher than vehicle (e.g. higher dark-flash O-bend response probability, or better optomotor performance)
# Details: 10 µM; pre-incubation: 30-90 min
row,SMILES,Prob-Naive
1,O=C(c1ccc(F)cc1)C1CCN(CCn2c(=O)[nH]c3ccccc3c2=O)CC1 [Ketanserin],0.831
2,Cc1ccc2c(=O)c3cccc(CC(=O)O)c3oc2c1C [DMXAA (Vadimezan)],-0.82
3,Cc1ncc([N+](=O)[O-])n1CC(C)O (stereo not drawn) [Secnidazole],0
4,Cl.Cl.Clc1ccc(Nc2nnc(Cc3ccncc3)c3ccccc23)cc1 [Vatalanib (PTK787) 2HCl],-0.157
5,CC(C)(C)c1ccc(C(O)CCCN2CCC(C(O)(c3ccccc3)c3ccccc3)CC2)cc1 (stereo not drawn) [Terfenadine],0.433
6,CCS(=O)(=O)CCn1c([N+](=O)[O-])cnc1C [Tinidazole],0.402
7,CCOc1ccn(-c2ccc(F)cc2)c(=O)c1C(=O)Nc1ccc(Oc2ccnc(N)c2Cl)c(F)c1,0.113
8,COc1cc2c(cc1OC)[C@@H]1Cc3ccc(OC)c(OC)c3CN1CC2 [Rotundine],0.028
9,NS(=O)(=O)Cc1noc2ccccc12 [Zonisamide],0.0939
10,CNCC(O)c1ccc(O)c(O)c1 (racemic) [DL-Adrenaline],0.0681
11,Cc1cc(NC(=O)C2=C(O)c3ccccc3S(=O)(=O)N2C)no1 [Isoxicam],-0.0812
12,Cl.O=C(c1ccc(OCCN2CCCCC2)cc1)c1c(-c2ccc(O)cc2)sc2cc(O)ccc12 [Raloxifene HCl],-0.493
13,Cc1c(CN2CCN(C(=O)[C@H](C)O)CC2)sc2c(N3CCOCC3)nc(-c3cnc(N)nc3)nc12,-0.283

# 3 consecutive compounds already listed, quoted:
row,SMILES,Prob-Naive
10,CNCC(O)c1ccc(O)c(O)c1 (racemic) [DL-Adrenaline],0.0681
11,Cc1cc(NC(=O)C2=C(O)c3ccccc3S(=O)(=O)N2C)no1 [Isoxicam],-0.0812
12,Cl.O=C(c1ccc(OCCN2CCCCC2)cc1)c1c(-c2ccc(O)cc2)sc2cc(O)ccc12 [Raloxifene HCl],-0.493
